Drawing on patent US20240034796A1 (GENUV, published 2024), this text covers binding for 6 molecules.

The chains behind the UniProt entries cited, without tags or fusion partners. Where a name states a change or a piece, a line headed by the entry shows the natural chain unless it says otherwise.
UniProt Q15116: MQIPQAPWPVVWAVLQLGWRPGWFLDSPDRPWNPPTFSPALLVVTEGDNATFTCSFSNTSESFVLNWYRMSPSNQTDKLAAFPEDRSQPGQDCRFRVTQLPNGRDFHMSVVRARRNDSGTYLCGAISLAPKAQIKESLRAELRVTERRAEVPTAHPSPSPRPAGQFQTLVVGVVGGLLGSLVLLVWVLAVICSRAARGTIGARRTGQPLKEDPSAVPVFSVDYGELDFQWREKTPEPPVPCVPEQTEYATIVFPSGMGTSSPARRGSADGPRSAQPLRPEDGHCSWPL

Where a chain is given by its changes, count along the chain named. No constants are given. Whether binding was seen depends on the method and setting. Some binding calls cover weakened binding; strength is not graded here.

Assay [1] deals with T1, human PD-1 protein (human, UniProt Q15116 25-167, limits assumed).
T1 construct: also called human PD-1 antigen
The experiment in a line: protein-based ELISA, hybridoma screening. In general terms: An ELISA detects its analyte on a solid surface through an enzyme-linked reagent.

In assay [2] the target is T1, human PD-1 protein. Put plainly: protein-based ELISA, coated human PD-1, hybridoma supernatant.
The target of assay [3] is T1, human PD-1 protein. The experiment in a line: co-crystallisation, X-ray crystallography.
The target of assay [4] is extracellular domain (ECD) PD-1 protein from cynomolgus (cynomolgus) (UniProt B0LAJ3). Put plainly: protein-based ELISA, 10 ng coated PD-1 ECD, antibody at 1 ug/ml.
For assay [5], the target named is T2, Rat PD-1.
T2 sequence: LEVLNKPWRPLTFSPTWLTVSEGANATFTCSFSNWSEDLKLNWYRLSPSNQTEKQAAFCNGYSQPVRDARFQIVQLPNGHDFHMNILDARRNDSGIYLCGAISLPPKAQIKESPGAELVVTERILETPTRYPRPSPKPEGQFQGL
Put plainly: protein-based ELISA, coated PD-1 ECD.

Assay [6] addresses T1, human PD-1 protein. Put plainly: SPR (Biacore 8K), antibody captured on Protein A chip, human PD-1 as analyte. (In SPR one partner is held on a chip, and binding of the other changes the refractive index at the surface.)
The target of assay [7] is extracellular domain (ECD) PD-1 protein from cynomolgus (cynomolgus) (UniProt B0LAJ3). The experiment in a line: protein-based ELISA, coated PD-1 ECD, antibody at 1 ug/ml.
Assay [8] concerns the target T1, human PD-1 protein. Put plainly: SPR, Biacore 8K.
The target in assay [9] is T1, human PD-1 protein. Put plainly: SPR (Biacore 8K), pH 7.4, antibody captured on Protein A chip, human PD-1 as analyte.
The target in assay [10] is T1, human PD-1 protein. The experiment in a line: SPR (Biacore 8K), pH 6.0 (HBS-EP+), antibody (10 ug/ml) captured on Protein A chip, hPD1-His as analyte, 1:1 binding fit.
Assay [11] addresses T1, human PD-1 protein. Put plainly: SPR (Biacore 8K), pH 7.4, antibody (10 ug/ml) captured on Protein A chip, hPD1-His as analyte, 1:1 binding fit.
The target of assay [12] is T1, human PD-1 protein. The experiment in a line: SPR (Biacore 8K), pH 6.0, antibody captured on Protein A chip, human PD-1 as analyte.

B1: hybridoma 1G1 antibody (antibody, V domains shown)
VH: EVQLQQSGAELVKPGASVKLSCKASGYTFTGYWMHWVKQRPGQGLEWIGMIHPNSDTTTYNEKFKNRATLTVDKSSGTAYMQLSSLTSEDSAVYYCTGTDQAAWFAFWGQGTLVTVSA
VL: DIVLTQTPLSLPVSLGDQASISCRSSQNIVHSNGDTYLEWYLQKPGQSPKLLIYKVSKRFSGVPDRFSGSGSGTDFTLKISRVEAEDLGVYYCFQGSHVPWTFGGGTKLEIK
notes: Mouse antibody from the hybridoma, used as culture supernatant or Protein G purified; IgG1 reverse primer used for VH); also called 1G1 hybridoma antibody; monoclonal cell (hybridoma) 1G1 antibody
With B1, the binding entry in [1] and in assay [2] was “binds” in each case.

B2: 1G1-h70 antibody Fab (Fab, V domains shown)
VH: QVQLVQSGAEVKKPGASVKVSCKASGYTFTGYWMHWVRQAPGQGLEWIGMIHPNSDTTTYNEKFKNRVTMTRDTSISTAYMELSRLRSDDTAVYYCAGTDQAAWFAFWGQGTTVTVSS
VL: B1 VL with L4M, P12S, S14T, L15P, D17Q, Q18P, N33Q, K50Q, L88V, L109V
Turning to B2, the binding entry in assay [3] was “binds”.

B3: chimeric 1G1 antibody (antibody, human IgG4 S228P, kappa, V domains shown)
VH: B1 VH
VL: DIVLTQTPLSLPVSLGDQASISCRSSQNIVHSNGDTYLEWYLQKPGQSPKLLIYKVSKRFSGVPDRFSGSGSGTDFTLKISRVEAEDLGVYYCFQGSHVPWTFGGGTKLEIKR
notes: signal peptide not part of the entries; also called 1G1 chimeric; 1G1-chimeric
On to B3, for which the binding result in [4] was “binds”; in assay [5], “no binding (tested: 1 ug/ml (single concentration))”; in assay [6] it was “binds”; in [7], “binds”.

B4: humanized antibody 1G1-h68 (antibody, human IgG4, kappa, V domains shown)
VH: B2 VH with A97T
VL: B3 VL with L4M, P12S, S14T, L15P, D17Q, Q18P, K50Q, L88V, L109V
notes: hIgG4 heavy chain, human kappa light chain
For B4, the binding result was “binds” in [4]; “no binding (tested: 1 ug/ml (single concentration))” in assay [5]; “binds” in assay [6]; “binds” in assay [7]; “binds” in [8].

B5: humanized antibody 1G1-h61 (antibody, human IgG4, kappa, V domains shown)
VH: B2 VH with I48M
VL: B3 VL with L4M, P12S, S14T, L15P, D17Q, Q18P, L88V, L109V
notes: as for B4
In the case of B5, the binding entry in assay [4] is recorded as “binds”; in assay [5] it was “no binding (tested: 1 ug/ml (single concentration))”; in [6] it was “binds”; in [7], “binds”; in assay [8], “binds”.

B6: humanized antibody 1G1-h70 (antibody, V domains shown)
VH: B2 VH
VL: B3 VL with L4M, P12S, S14T, L15P, D17Q, Q18P, N33Q, K50Q, L88V, L109V
notes: hIgG4 heavy chain, human kappa light chain; also called 1G1-h70 parent antibody (WT); U299-WTI
As to B6, the binding entry in assay [9] is “binds”; in [4], “binds”; in assay [10], “binds”; in [5], “no binding (tested: 1 ug/ml (single concentration))”; in assay [11], “binds”; in assay [6], “binds”. In addition, the binding entry in assay [12], in assay [7] and in assay [8] was “binds” in each case.
